Reference: article PMC8887895
Results are given in words; binding and its absence hold for the method and conditions named. Binding seen in cells or lysates may run through a third protein. Some binding calls cover weakened binding; strength is not graded here. Sequences can lack the tags named with a protein.

Chains of the proteins cited; added tags and fusions are not shown.
UniProt P32121: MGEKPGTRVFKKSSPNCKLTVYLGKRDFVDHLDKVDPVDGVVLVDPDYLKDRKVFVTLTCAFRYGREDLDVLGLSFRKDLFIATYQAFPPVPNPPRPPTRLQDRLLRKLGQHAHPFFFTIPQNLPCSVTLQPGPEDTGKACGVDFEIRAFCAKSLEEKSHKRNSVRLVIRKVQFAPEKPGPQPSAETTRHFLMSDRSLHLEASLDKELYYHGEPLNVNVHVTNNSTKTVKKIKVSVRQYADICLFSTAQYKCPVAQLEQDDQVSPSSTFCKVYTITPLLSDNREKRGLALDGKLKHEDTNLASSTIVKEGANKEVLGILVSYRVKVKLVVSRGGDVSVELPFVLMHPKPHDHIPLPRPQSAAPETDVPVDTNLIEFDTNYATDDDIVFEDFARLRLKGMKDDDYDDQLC

Target: T1, wild-type human FFA2 tagged with eYFP at its C terminus (human) (UniProt O15552)
T1 sequence: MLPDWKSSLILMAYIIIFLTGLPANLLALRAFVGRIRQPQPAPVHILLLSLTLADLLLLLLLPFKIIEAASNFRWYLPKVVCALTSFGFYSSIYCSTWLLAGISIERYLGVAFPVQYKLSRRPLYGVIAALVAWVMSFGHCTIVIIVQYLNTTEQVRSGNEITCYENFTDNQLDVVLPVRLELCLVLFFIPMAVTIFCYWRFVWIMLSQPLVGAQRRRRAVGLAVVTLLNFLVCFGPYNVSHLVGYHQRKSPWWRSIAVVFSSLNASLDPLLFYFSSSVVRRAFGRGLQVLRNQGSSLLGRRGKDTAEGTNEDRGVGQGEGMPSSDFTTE
Test: FRET or BRET; BRET in HEK-293T cells cotransfected with receptor-eYFP and β-arrestin-2-Renilla luciferase (ratio 4:1), 48 hr after transfection; coelenterazine-h 5 µM; interaction promoted by added agonist (sorbic acid or MOMBA for hFFA2-DREADD, C3 for wild-type hFFA2); net BRET 530/485 nm

binding: binds
Substance: β-arrestin-2-Renilla-luciferase (from UniProt P32121 1-409)
